System: MCF-7
Assay: cells
Conditions: Homo sapiens, MCF7, 72 h, read-out: Inhibitory Concentration IC50
Procedure: In Vitro Study—MCF-7 Cell Proliferation
The tumor cells were obtained from American Type Culture Collection (ATCC HTB-22). The culture media used was Minimum Essential medium with 10% fetal bovine serum, and media were supplemented with 1% antibiotic-antimycotic. Aliquots of 100 μl of cell suspension (5×10^3/well) were placed in 96-well microtiter plates in an atmosphere of 5% CO2 at 37° C. After 24 hours, 100 μl of growth medium, 2 μl of test solution, mitomycin or vehicle (DMSO, final concentration 0.4%), was added respectively per well in duplicate for an additional 72-hours incubation. At the end of incubation, 20 μl of alamarBlue 75% reagent was added to each well for another 6-hour incubation before detection of cell viability by fluorescent intensity (excitation at 530 nm and emission at 590 nm).

Molecule `CC/C(=C(\c1ccccc1)c1ccc(OCCN(C)C)cc1)c1ccccc1` [tamoxifene] has an IC50 of 6 µM.
